We go through 14 molecules from US9271932B2, “Fusogenic properties of saposin C and related proteins and peptides for application to transmembrane drug delivery systems” (CHILDREN'S HOSPITAL MEDICAL CENTER, priority 2006, dated 2016).

Sequences and labels used below:
B1: Saposin C(S37W): saposin C with a Trp at residue 37 (in the middle) (protein, UniProt P07602 311-390, looked up, variant S37W)
Saposin-C: SDVYCEVCEFLVKEVTKLIDNNKTEKEILDAFDKMCWKLPKSLSEECQEVVDTYGSSILSILLEEVSPELVCSMLHLCSG
modifications: Saposin-C
B2: Saposin C(S37W, Q48N): Trp-labeled saposin C mutant S37W, Q48N (protein, UniProt P07602 311-390, looked up, variant S37W Q48N)
Saposin-C: B1 Saposin-C with Q48N
modifications: Saposin-C
B3: Saposin C(S37W, Q48A/E49A): Trp-labeled saposin C mutant S37W, Q48A/E49A (protein, UniProt P07602 311-390, looked up, variant S37W Q48A E49A)
Saposin-C: B1 Saposin-C with Q48A, E49A
modifications: Saposin-C
B4: Saposin A(37W, G64E): saposin A (37W) mutant G64E (protein, UniProt P07602 60-142, looked up, variant G64E)
Saposin-A: SLPCDICKDVVTAAGDMLKDNATEEEILVYLEKTCDWLPKPNMSASCKEIVDSYLPVILDIIKEEMSRPGEVCSALNLCESLQ
modifications: Saposin-A
notes: saposin A (37W) mutant G64E
B5: Saposin A(37W): saposin A with Trp at residue 37; wild-type A contains a natural Trp (37W) (protein, UniProt P07602 60-142, looked up)
Saposin-A: B4 Saposin-A with E64G
modifications: Saposin-A
B6: Saposin B + Phosphatidylcholine (18:1, 1): saposin B complexed with neutral phosphatidylcholine (18:1,1) liposomes (protein, UniProt P07602 195-273, looked up)
Saposin-B: GDVCQDCIQMVTDIQTAVRTNSTFVQALVEHVKEECDRLGPGMADICKNYISQYSEIAIQMMMHMQPKEICALVGFCDE
modifications: Saposin-B complexed with phosphatidylcholine liposomes
notes: saposin B complexed with neutral phosphatidylcholine (18:1,1) liposomes
B7: Saposin B: Recombinant saposin B, prosaposin-derived sphingolipid activator protein expressed in E. coli (protein, UniProt P07602 195-273, looked up)
Saposin-B: B6 Saposin-B
modifications: Saposin-B
B8: Saposin B + Phosphatidylserine (18:1, 1): saposin B with phosphatidylserine (18:1,1) liposomes (protein, UniProt P07602 195-273, looked up)
Saposin-B: B6 Saposin-B
modifications: Saposin-B with phosphatidylserine liposomes
notes: saposin B with phosphatidylserine (18:1,1) liposomes
B9: Saposin C + Phosphatidylserine (18:0, 0): saposin C with saturated phosphatidylserine PS(18:0,0) liposomes (protein, UniProt P07602 311-390, looked up)
Saposin-C: B1 Saposin-C with W37S
modifications: Saposin-C with saturated phosphatidylserine liposomes
notes: saposin C with saturated phosphatidylserine PS(18:0,0) liposomes
B10: Saposin C + Phosphatidylcholine (18:1, 1): saposin C with neutral phosphatidylcholine (18:1,1) liposomes (protein, UniProt P07602 311-390, looked up)
Saposin-C: B1 Saposin-C with W37S
modifications: Saposin-C with phosphatidylcholine liposomes
notes: saposin C with neutral phosphatidylcholine (18:1,1) liposomes
B11: Saposin C: Recombinant saposin C, prosaposin-derived fusogenic lysosomal protein, expressed in E. coli (His-tag) (protein, listed as Homo sapiens)
chain: B1 Saposin-C with W37S
modifications: His-tag
B12: Saposin C + Phosphatidylserine (18:1, 1): saposin C complexed with acidic, unsaturated phosphatidylserine PS(18:1,1) liposomes (protein, UniProt P07602 311-390, looked up)
Saposin-C: B1 Saposin-C with W37S
modifications: Saposin-C complexed with phosphatidylserine liposomes
notes: saposin C complexed with acidic, unsaturated phosphatidylserine PS(18:1,1) liposomes
B13: Saposin A: Recombinant saposin A, prosaposin-derived sphingolipid activator protein (protein, UniProt P07602 60-142, looked up)
Saposin-A: B4 Saposin-A with E64G
modifications: Saposin-A
B14: Saposin A + Phosphatidylserine (18:1, 1): saposin A with phosphatidylserine (18:1,1) liposomes (protein, UniProt P07602 60-142, looked up)
Saposin-A: B4 Saposin-A with E64G
modifications: Saposin-A with phosphatidylserine liposomes
notes: saposin A with phosphatidylserine (18:1,1) liposomes

Changes are numbered by the printed parent chain. Names and notes keep the numbering of the source.

A short description of one data set: Fluorescence emission maxima of Trp-saposins in absence and presence of BPS liposomes. Type of data set: binding. As to conditions: absence of BPS; pH 4.7. The source says: (§1) To determine the specificity of saposin C-phospholipid interaction, a liposomal system is developed using CD, fluorescence emission shifts, and fluorescence quenching methods. Mutated saposins C's, produced to contain individual Trp (W), are termed saposin C(0W), (S37W), and (81W). These Trp-labeled saposin C's are as follows: saposin C(0W) has a Trp preceding the first NH2-terminal amino acid of mature saposin C, saposin C(S37W) has a Trp at residue 37 (i.e., in the middle), and saposin C(81W) has a Trp after the last COOH-terminal amino acid. These substitutions had no effect on the activation properties or CD spectra of saposin C.
Emission spectra of proteins shift when the tryptophanyl environments change polarity.
Experiments conditions: pH 4.7, protein:lipid=1:20 to 40. No differences are observed at 22 or 37° C.
On to B1, for which the “Emission Maxima (EM, nm) −BPS” value is 351 nm.
Same read-out and setting: next, B2: 345 nm; B3: 338 nm; B4: 344 nm.
Turning to B5, the “Emission Maxima (EM, nm) −BPS” value amounted to 351 nm.

The same data set, now with this note: presence of BPS; pH 4.7, protein:lipid=1:20 to 40.
Consider B1, for which the “Emission Maxima (EM, nm) +BPS” value was found to be 351 nm.
Same read-out and setting: next, B2: 339 nm; B3: 329 nm; B4: 358 nm.
Still for that read-out and setting: next, B5: 338 nm.

Another data set can be described thus: Circular dichroism (195-250 nm) analyses of saposins with various phospholipids.
Conditions: not given
Description: as §1
Using CD spectroscopy, relative secondary structural changes of recombinant saposins are induced by membrane binding.
No changes are observed with saposin A and B in the PS (18:1,1) complexes. […] The CD data are collected on a Jasco 710 instrument, and deconvoluted using Yang's method (see Chang, C. T., Wu, C. S., and Yang, J. T. Anal. Biochem (1978) 91, 13-31). b) Fluorescence Emission Spectra
In the case of B1, the “effect of Trp substitutions on CD spectra of saposin C” value is “no effect”.

The same data set, now with this note: CD 195-250 nm, deconvoluted by Yang's method.
Consider B6, for which the “% α” value is 68.2% and the “% β” value worked out at 24.2%.
Turning to B7, the “% α” value was 43.7% and the “% β” value is listed as 36.6%.
The like results for B8 were, in that order, 43.8% and 38.8%.
The like results for B9 were, in that order, 30.1% and 40.4%.
The like results for B10 were, in that order, 30.6% and 41.0%.
With B11, the “% α” value is on record as 29.9% and the “% β” value amounted to 41.7%.
Taken in the same sequence, the figures for B12 were 49.8% and 3.9%.
Taken in the same sequence, the figures for B13 were 44.0% and 31.9%.
The like results for B14 were, in that order, 39.3% and 34.9%.

Staying with this data set, now noted: CD spectroscopy.
In the case of B7, the “secondary structure changes in the PS (18:1,1) complexes” value is on record as “No changes”.
On the same count and under the same terms, next, B13: “No changes”.

The same data set, now with this note: CD spectroscopy, lipid-bound vs lipid-free.
For the molecule B6, the “relative secondary structural changes induced by membrane binding” value was “decrease the β-strand and an increase the α-helix content”.
Same read-out and setting: next, B12: “decrease the β-strand and an increase the α-helix content”.
